Some of these results come from one statement about several compounds together. At least one compound was matched to its structure with a doubt left.
Key:
[1] = tested on: Staphylococcus aureus Strain COL; experiment: Biofilm formation assay in FBS pre-treated 96 well plates, crystal violet (Example 10); assay type: cell-based; conditions: 2% sucrose, 36-40 hours
Experimental: 3 ml overnight cultures were grown in blood-heart infusion broth (BHI) shaking at 37° C., where cultures were diluted 1:25 for use in the biofilm assay.
2% sucrose (20 μl from a 20% sucrose stock) was added to each well prior to the addition of the bacterial culture to promote biofilm formation. In addition, 96 well microtiter plates were pre-treated with fetal bovine serum (FBS) at 4° C. for at least 24 hours prior to use. The FBS was aspirated prior to addition of chelators and sucrose for the assay. […] 20 μl of each stock solution (200, 400, 800, 1600, 3200, 6400, 13000, or 26000 μM chelator) was added to each well. 200 μl of the 1:25 dilution of COL bacterial culture (as previously specified) was added to each well. Controls with bacterial culture media only and bacterial culture media plus vehicle controls only (i.e, final concentrations 10 mM HCl, 10% ethanol, and 10 mM NaOH) were added to wells alone without chelator. The 96 well plates were then incubated 36-40 hours statically at 37° C. Media was aspirated by pipet and wells were washed twice with filtered water. The plates were dried by inversion for 1 hour, and stained with 0.1% crystal violet for 15 minutes. Crystal violet was then aspirated by pipet and washed once with filtered water. The plates were then read on a spectrophotometer at a wavelength of 570 nm. An absorbance greater than 0.1 indicates biofilm formation.

[2] = tested on: Methicillin-Resistant Staphylococcus aureus Strain USA300; experiment: Biofilm formation assay in fibronectin pre-treated 96 well plates, crystal violet (Example 11); assay type: cell-based; conditions: USA300, 2% glucose, 36-40 hours
Experimental: S. aureus strain USA300 was obtained from Daniel Hassett (University of Cincinnati) as a glycerol stock. 3 ml overnight cultures were grown in blood-heart infusion broth (BHI) shaking at 37° C., where cultures were diluted 1:25 for use in the biofilm assay. 2% glucose (20 ul from a 20% glucose stock) was added to each well prior to the addition of bacterial culture to promote biofilm formation. In addition, 96 well microtiter plates were pre-treated with human fibronectin (BD biomedical purchased from Fisher scientific). The fibronectin was aspirated prior to addition of chelators and glucose for the assay. Each chelator (prepared in Examples 1-6) was added directly to a 96 well microtiter plate in a series of dilutions. 20 μl of each stock solution (200, 400, 800, 1600, 3200, 6400, 13000, or 26000 μM chelator) was added to each well. 200 μl of the 1:25 dilution of USA300 bacterial culture dilution (as previously specified) were added to each well. Controls with bacterial culture media only and bacterial culture media plus vehicle controls only (final concentrations 10 mM HCl, 10% ethanol, and 10 mM NaOH) were added to wells alone without chelator. The 96 well plates were then incubated 36-40 hours statically at 37° C. […] The plates were then read on a spectrophotometer at a wavelength of 570 nm. An absorbance greater than 0.1 indicates biofilm formation.

c1ccc(CN(CCN(Cc2ccccn2)Cc2ccccn2)Cc2ccccn2)nc1 [TPEN, N,N,N′,N′-tetrakis(2-pyrdiylmethyl)ethylenediamine]
chelator concentration above which biofilms were inhibited (absorbance of 0.1 or less) [1]: greater than 20 μM
chelator concentration above which biofilms were inhibited (absorbance of 0.1 or less) [2]: greater than 20 μM
